Reference: US20040253728A1, “New method” (priority 2000, published 2004)
These are yes or no findings as the source states them, for the method shown. In cells and extracts the contact can be indirect. Some results given as binding are weak or reduced against the parent protein; the word gives no strength.

Sequences of proteins named here, by UniProt entry; tags and fusion partners are left off. A change or cut given only in a name is not applied to a line headed by its entry.
UniProt O00411: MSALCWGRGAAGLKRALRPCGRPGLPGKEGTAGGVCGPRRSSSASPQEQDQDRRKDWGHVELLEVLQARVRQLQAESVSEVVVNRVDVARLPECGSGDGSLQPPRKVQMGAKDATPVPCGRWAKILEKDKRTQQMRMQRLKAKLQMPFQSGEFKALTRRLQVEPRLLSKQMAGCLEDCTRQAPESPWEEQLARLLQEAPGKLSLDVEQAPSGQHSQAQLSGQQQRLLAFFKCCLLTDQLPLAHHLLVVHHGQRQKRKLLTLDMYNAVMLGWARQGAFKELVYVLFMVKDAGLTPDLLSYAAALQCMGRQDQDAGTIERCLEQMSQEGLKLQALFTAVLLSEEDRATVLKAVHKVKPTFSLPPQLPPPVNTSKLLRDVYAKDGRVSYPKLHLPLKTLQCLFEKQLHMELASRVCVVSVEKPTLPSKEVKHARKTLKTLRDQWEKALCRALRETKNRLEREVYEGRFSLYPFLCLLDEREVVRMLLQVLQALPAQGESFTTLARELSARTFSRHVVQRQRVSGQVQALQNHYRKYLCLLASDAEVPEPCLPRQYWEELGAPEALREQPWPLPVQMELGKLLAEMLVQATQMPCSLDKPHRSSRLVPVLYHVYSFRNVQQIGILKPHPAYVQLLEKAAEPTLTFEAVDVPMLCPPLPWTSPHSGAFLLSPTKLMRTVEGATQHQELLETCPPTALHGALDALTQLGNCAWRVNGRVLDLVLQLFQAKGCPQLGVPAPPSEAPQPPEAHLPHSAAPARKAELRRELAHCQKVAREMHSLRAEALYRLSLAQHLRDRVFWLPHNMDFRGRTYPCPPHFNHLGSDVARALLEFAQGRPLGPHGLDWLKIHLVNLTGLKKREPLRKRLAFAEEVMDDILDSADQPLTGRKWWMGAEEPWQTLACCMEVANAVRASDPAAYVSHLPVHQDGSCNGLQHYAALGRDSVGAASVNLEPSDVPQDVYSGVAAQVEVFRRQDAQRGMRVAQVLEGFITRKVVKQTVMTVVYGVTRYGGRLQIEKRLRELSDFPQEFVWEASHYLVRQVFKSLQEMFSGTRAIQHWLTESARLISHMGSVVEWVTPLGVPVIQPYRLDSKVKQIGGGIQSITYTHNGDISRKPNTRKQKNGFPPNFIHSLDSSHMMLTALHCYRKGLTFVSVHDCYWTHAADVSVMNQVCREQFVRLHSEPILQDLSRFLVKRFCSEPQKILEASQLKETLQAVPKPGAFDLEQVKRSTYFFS

Assays:
[1] = target: His-tagged recombinant human mitochondrial RNA polymerase (mtRNAP) (human) (UniProt O00411); experiment: Ni2+-NTA co-purification after co-expression; composition of the purified complex
[2] = target: His-tagged recombinant human mitochondrial RNA polymerase (mtRNAP) (human) (UniProt O00411); experiment: co-purification on Ni2+-NTA through His-tagged mtRNAP after baculovirus co-expression, washes at 0.3 M NaCl

binding [1]: binds | binding [2]: binds
B1: recombinant human TFB1M (CGI-75 protein) (protein)
chain: QAANELSQNFLLDLRLTDKIVRKAGNLTNAYVYEVGPGPGGITRSILNADVAELLVVEKDTRFIPGLQMLSDAAPGKLRIVHGDVLTFKVEKAFSESLKRPWEDDPPNVHIIGNLPFSVSTPLIIKWLENISCRDGPFVYGRTQMTLTFQKEVAERLAANTGSKQRSRLSVMAQYLCNVRHIFTIPGQAFVPKPEVDVGVVHFTPLIQPKIEQPFKLVEKVVQNVFQFRRKYCHRGLRMLFPEAQRLESTGRLLELADIDPTLRPRQLSISHFKSLCDVYRKMCDEDPQLFAYNFREELKRRKSKNEEKEEDDAENYRL
